Experimental data taken from patent publication US5543498A, “Peptides to overcome inhibition of nerve growth” (The General Hospital Corporation, priority 1995, dated 1996).
“Also recorded” adds a separate entry of the source. Part of at least one peptide drawing is inferred or uncertain, most often the ends. Residues, ends and D or L forms follow the SMILES beside them. No end group written: not given here.

Chains of the proteins cited; added tags and fusions are not shown.
UniProt P09471, whole entry: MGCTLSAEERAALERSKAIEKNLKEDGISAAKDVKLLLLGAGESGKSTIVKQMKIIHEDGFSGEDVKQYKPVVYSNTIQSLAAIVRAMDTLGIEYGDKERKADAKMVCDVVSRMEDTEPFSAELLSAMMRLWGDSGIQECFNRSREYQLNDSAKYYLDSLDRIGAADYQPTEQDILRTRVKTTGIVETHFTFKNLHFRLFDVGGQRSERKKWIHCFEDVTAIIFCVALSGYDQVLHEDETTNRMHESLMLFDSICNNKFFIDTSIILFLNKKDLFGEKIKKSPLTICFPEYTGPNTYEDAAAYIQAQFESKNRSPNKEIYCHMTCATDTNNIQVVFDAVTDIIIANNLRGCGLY

Experiments:
[1] = test system: Chick dorsal root ganglion (DRG) neurons; type: cell-based; details: doses used for the BME dose response (FIG. 3C)
Experimental: Chick DRGs from embryonic day 7 (E7) were explanted onto laminin-coated chamber slides in F12 medium with 10 ng/ml nerve growth factor and 10% fetal bovine serum. After 20 hours, peptide solutions or phosphate-buffered saline (PBS) in 1 mM DTT was added to the explants (225 μl) and the mixture incubated at 27° C. for one hour. BME, prepared following the procedure of J. A. Raper and J. P. Kapfhammer, Neuron 2:21 (1990), was added to the explants and incubated for 30 minutes. For each explant, all growth cones were scored as collapsed or fan-shaped (M. Igarashi et al., Science 259:77 (1993)).
In another series of experiments the GAP-43 1-10 peptide was added into the culture medium at 10^-8 M one hour prior to the addition of BME. After 30 minutes incubation with BME, the explant was fixed in glutaraldehyde and its growth cones were scored.
After exposing the PTX treated neurons to BME and the GAP-43 1-10, the amount of growth cone collapse was measured.
The procedure described in Example 2 was followed with the exception that one hour prior to the addition of BME (0.15 mg protein/ml) to the DRG culture medium, either the methionine or tyrosine mutant peptide was introduced at a concentration of 10^-4 M.

[2] = test system: retinal neurons; experiment: Brain membrane extract (BME)-induced growth cone collapse of retinal neurons; type: cell-based, chick
[3] = test system: DRG neurons; experiment: Neurite outgrowth of dissociated DRG neurons with solubilized myelin; type: cell-based, chick
[4] = molecular target: Go (Homo sapiens, UniProt P09471); experiment: GTPγ S binding to Go (nitrocellulose filtration assay); type: biochemical; details: for effect on GTPγ S binding to Go, dose response: oxidized (performic acid) vs control peptide, same concentration range; for effect of mutant decapeptides on GTPγ S binding to Go: peptide 250 μM, binding without peptides = 100%
Experimental: The GAP-43 1-10 peptide was oxidized using performic acid according to the procedures of A. Roher et al., Proc. Natl. Acad. Sci. USA 83:2662 (1986). Briefly, 10 mM peptide was incubated with formic acid solution containing 3% H2 O2 at 25° C. for one hour. The activation state of Go was determined in a nitrocellulose filtration assay as described by S. M. Strittmatter et al., Proc. Natl. Acad. Sci. USA 90:5327 (1993).
Both cysteine residues at positions 3 and 4 in the native GAP-43 1-10 peptide were replaced with methionine, tyrosine, aspartate, glutamate, lysine, arginine, serine, and tryptophan. These mutant peptides were tested for their ability to influence GTPγ S binding to Go.

[5] = pretreatment with 10^-8 M peptide

| Molecule | effect of the peptides by themselves on growth cones [1] | growth cone collapse by the peptide itself ([2]; peptide alone at 10^-8 M) | potentiation of BME-induced growth cone collapse (sensitivity to BME) [2, 5] | fraction of DRG neurons with neurites longer than 20 μm, peptide alone ([3]; peptide alone, 6 hours of culture) | potentiation of the inhibitory effects of myelin on neurite outgrowth [3, 5] | potentiation of the inhibitory effects of myelin on neurite outgrowth ([3]; pretreatment with 10^-9 M peptide) | effect on GTPγ S binding to Go, dose response [4] | effect on GTPγ S binding to Go, dose response ([4]; listed as control GAP-43 1-10 peptide) | effect of mutant decapeptides on GTPγ S binding to Go [4] | effect of mutant decapeptides on GTPγ S binding to Go ([4]; listed as methionine) |
| --- | --- | --- | --- | --- | --- | --- | --- | --- | --- | --- |
| CSCC[C@H](NC(=O)[C@H](CS)NC(=O)[C@H](CS)NC(=O)[C@H](CC(C)C)NC(=O)[C@@H](N)CCSC)C(=O)N[C@@H](CCCNC(=N)N)C(=O)N[C@@H](CCCNC(=N)N)C(=O)N[C@H](C(=O)N[C@@H](CCCCN)C(=O)N[C@@H](CCC(N)=O)C(=O)O)[C@@H](C)O [GAP-43 1-10 peptide, MLCCMRRTKQ] (H-MLCCMRRTKQ-OH) | do not have any evident effect by themselves | does not affect the proportion of collapsed growth cones | enhances the response of both types of neurons to BME; also recorded: significantly increased; also recorded: tripled | does not affect the fraction of DRG neurons with neurites longer than 20 μm; also recorded: does not inhibit neurite outgrowth | potentiated; also recorded: potentiate the inhibition of DRG neurite outgrowth | potentiated | dose-dependent simulation | dose-dependent stimulation | – | – |
| MLMMMRRTKQ [peptide-M, [3M, 4M] GAP43 (1-10)] | – | – | – | – | – | – | – | – | attenuate GTPγ S binding to Go; also recorded: antagonist of G protein stimulation | inhibits GTPγ S binding to Go |
